Results as given in patent publication US8412306B2, “Voltage standing wave suppression for MR-guided therapeutic interventions” (Wisconsin Alumni Research Foundation, priority 2007, dated 2013).
At least one structure is not confirmed: it was looked up by name or label, or the drawing left a doubt.

Test: Diffusion of a fluorescent probe in swollen gelatin gel by FRAP
Format: physicochemical
Settings: room temperature

O=C1OC2(c3ccc(O)cc3Oc3cc(O)ccc32)c2ccccc21 [fluorescein]
diffusion coefficient in gelatin (gelatin concentration 9%): 1.5×10-10 m2s−1
diffusion coefficient in gelatin (gelatin concentration 40%): 9×10-12 m2s−1
